The other results are listed elsewhere or left out. The main result of the screen is listed elsewhere. These columns were measured beside it and carry no call. Compounds called inactive in the main read-out are mostly missing here. Potencies come from curve fits of mixed quality, noted in brackets.
Test: qHTS Assay for Lipid Storage Modulators in Drosophila S3 Cells;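 for cell number change: cells counted by Cell Tracker Red CMTPX staining in the red channel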
Details: BODIPY lipid droplet fluorescence, 18-24 h; for cell number change: measured here: cell count max response, cells fed with added oleic acid
How it was run: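 Laser-scanning cytometry quantifies lipid droplet accumulation (500–530 nm total intensity; droplet/cell object ratio) in oleic acid-fed (400 uM added) Drosophila S3 cells treated with a concentration series. 20 uM Triacsin C defined 100% inhibition.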

[1] = measured here: cell number channel AC50, cells fed with added oleic acid
[2] = measured here: lipid fluorescence (Fed channel) AC50, cells fed with added oleic acid

| Compound | cell number change | AC50 [1] | AC50 [2] |
| --- | --- | --- | --- |
| COc1ccccc1NS(=O)(=O)c1ccc(C)c(C(=O)NC2CCN(Cc3ccccc3)CC2)c1 | 47.1% | 2.31 µM [rising, full curve, poor fit] | – |
| CCOc1ccc(C(=O)NCCNC(=O)c2ccc(OCC)cc2)cc1 | 0.676% | – | – |
| COc1ccc(NC(=O)C2=CC(c3ccc(OC)cc3)=NS(=O)(=O)N2C)cc1 | -3.75% | – | 16.4 µM [falling, single point] |
| Cc1cccc2nc(=S)n(C(=O)c3ccco3)n12 | 30.6% | 6.51 µM [rising, partial curve] | – |
| Cn1c(CNC(=O)c2ccc(Cl)c(Cl)c2)nnc1SCC(=O)Nc1sc2c(c1C#N)CCCC2 | 62.1% | 2.59 µM [rising, full curve] | 20.6 µM [rising, partial curve] |
| CCCc1nc(NCCCOCC)c2nnn(Cc3ccccc3)c2n1 | 16.1% | – | 2.91 µM [rising, single point] |
| C#CCOCCOCCOCCNc1nc(N2CCN(C(=O)[C@H](C(C)C)n3cc(CCO)nn3)CC2)nc(N2CCN(C(=O)[C@H](C(C)C)n3cc(CCO)nn3)CC2)n1 | 5.38% | – | 0.651 µM [falling, full curve, poor fit] |
| O=C(CSc1cn(CCNC(=O)c2c(F)cccc2F)c2ccccc12)NCC1CCCO1 (configuration not stated) | -19.8% | 3.66 µM [falling, full curve, poor fit] | 6.51 µM [falling, single point] |
| CC(C)CCn1c(Oc2ccc(Cl)cc2)nc2c1c(=O)n(C)c(=O)n2C | 74.5% | 29.1 µM [rising, single point] | – |
| CC(=O)Nc1ccc(S(=O)(=O)NCCC(=O)OCC(=O)c2cccc(Br)c2)cc1 | -25% | 4.11 µM [falling, single point] | 18.4 µM [rising, single point] |
| CCOC(=O)N1CCN(C(=O)CN(c2ccc(C)cc2)S(=O)(=O)c2c(C)noc2C)CC1 | – | 4.61 µM [rising, single point] | – |
| Cc1ccc(C(=O)N2CCN(C34CC5CC(CC(C5)C3)C4)CC2)o1 | -10.8% | – | 29.1 µM [rising, single point] |
| Cc1ccc(C23CC4CC(CC(NC(=O)NCCN(C)C)(C4)C2)C3)cc1 | -18.1% | 1.16 µM [falling, full curve, poor fit] | 23.1 µM [falling, partial curve] |
| CCOc1ccc(N2CC(C(=O)NCCCc3ccccc3)CC2=O)cc1 (configuration not stated) | -0.402% | – | 0.461 µM [rising, full curve, poor fit] |
| Cc1cccc(-c2nc(CS(=O)CC(=O)NCCc3ccccc3)c(C)o2)c1 (configuration not stated) | 50% | – | 29.1 µM [rising, single point] |
| O=C(N1CCOCC1)N1c2ccccc2CC(N2CCOCC2)c2ccccc21 (configuration not stated) | -37.8% | 1.64 µM [falling, full curve] | 0.00461 µM [falling, full curve, poor fit] |
| Cc1cc(C)c(C#N)c(SCC(=O)Nc2ccc(S(=O)(=O)Nc3onc(C)c3C)cc2)n1 | 10.5% | – | 16.4 µM [rising, single point] |
| c1ccc(CCc2cc3ccccc3[nH]2)cc1 | -54.4% | 5.17 µM [falling, single point] | 0.00517 µM [rising, full curve, poor fit] |
| CC[n+]1c(/C=C2\C=C(C)CC(C)C2)sc2ccccc21 (configuration not stated) | 4% | – | – |
| CNc1ccc(/C=C/C(=O)c2cccc3ccccc23)cc1[N+](=O)[O-] | -29.6% | – | 6.51 µM [falling, partial curve] |

Just AC50 [2] and AC50 [1], for some of the entries so far:
Compound | AC50 [2] | AC50 [1]
Cn1c(CNC(=O)c2ccc(Cl)c(Cl)c2)nnc1SCC(=O)Nc1sc2c(c1C#N)CCCC2 | 20.6 µM [rising, partial curve] | 2.59 µM [rising, full curve]
CNc1ccc(/C=C/C(=O)c2cccc3ccccc23)cc1[N+](=O)[O-] | 6.51 µM [falling, partial curve] | –

More compounds:

| Compound | cell number change | AC50 [1] | AC50 [2] |
| --- | --- | --- | --- |
| O=C(CN(C(=O)CCC(=O)Nc1nccs1)c1ccccc1F)NCC1CCCO1 (configuration not stated) | -88.6% | – | 11.6 µM [falling, partial curve] |
| COc1ccc(NC(=O)NC2CCCc3ccccc32)cc1OC (configuration not stated) | 33% | 1.64 µM [rising, full curve, poor fit] | – |
| COc1ccc(C(=O)Nc2nc(C)c(C(=O)N(C)C)s2)cc1OC | 77.3% | – | – |
| CCCCNC(=S)N(CCO)Cc1cc2cc3c(cc2[nH]c1=O)OCCO3 | 5.07% | – | – |
| CCOC(=O)c1cc2sccc2n1CC(=O)Nc1ccc2c(c1)OCCO2 | 69.3% | 16.4 µM [rising, partial curve] | – |
| O=C1c2ccccc2C(=O)N1CC(O)COc1ccccc1Cl (configuration not stated) | 36.1% | – | – |
| CCC(C)NC(=O)c1ccc2c(c1)N(Cc1ccccc1)C(=O)CS2 (configuration not stated) | -24.9% | – | – |
| CCN(CC)C(=O)C(C)N(C#N)c1nc(SC)nc(N(C)C)n1 (configuration not stated) | – | – | 0.82 µM [rising, single point] |
| O=C(O)/C(=C\c1cccs1)Sc1nnc(-c2ccc(F)cc2)o1 | 32.5% | – | 16.4 µM [rising, single point] |
| COc1c(C)cc(C(=O)C2CCCN(C(=O)Cn3ccc(C)n3)C2)cc1C (configuration not stated) | – | – | 0.58 µM [rising, single point] |
| O=C(O)c1cccc(NS(=O)(=O)c2ccc3c(c2)OCCCO3)c1 | -18.7% | – | 18.4 µM [falling, single point] |
| CC(C)c1ccc(NC(=O)Cn2ncc3ccccc32)cc1 | – | 0.58 µM [rising, single point] | 29.1 µM [rising, single point] |
| Cc1ccc(Nc2nc(CSc3nnc(-c4cccnc4)n3-c3ccccc3F)cs2)cc1 | 0.115% | – | – |
| CCC(=O)Nc1cccc(NC(=O)c2cc3ccccc3o2)c1 | – | 0.366 µM [rising, partial curve] | 0.116 µM [rising, single point] |
| Cc1cc(S(=O)(=O)NCCN(C)C)c(C)s1 | 6.79% | – | 0.00461 µM [rising, full curve, poor fit] |
| CCOc1ccc(NC(=O)CSc2nnnn2C2CC2)cc1S(=O)(=O)N1CCCC1 | -9.15% | – | 0.58 µM [falling, single point] |
| Cc1ccc(N(CC(O)CN2CCCCC2)S(=O)(=O)c2ccccc2[N+](=O)[O-])cc1 (configuration not stated) | 5.53% | – | – |
| COC(=O)Cn1c(=O)c2c(nc3n2CC(C)CN3CCc2ccccc2)n(C)c1=O (configuration not stated) | -13.9% | – | 6.51 µM [falling, partial curve, poor fit] |
| COc1cccc(NC(=O)C(NC2CCCC2)c2ccccc2)c1 (configuration not stated) | -25.4% | – | 23.1 µM [rising, single point] |
| CN(C)c1ccc(C(C[N+](=O)[O-])c2c(N)n(C)c(=O)n(C)c2=O)c(F)c1C#N (configuration not stated) | -31.7% | 6.51 µM [falling, partial curve] | 6.51 µM [falling, partial curve] |

| Compound | cell number change | AC50 [1] | AC50 [2] |
| --- | --- | --- | --- |
| CCOc1cccc(NC(=O)C2CCCN(S(=O)(=O)c3ccc(-n4cnnn4)cc3)C2)c1 (configuration not stated) | 33.1% | 29.1 µM [rising, single point] | 14.6 µM [rising, partial curve] |
| CCOP(=O)(OCC)c1nc(-c2cccc3ccccc23)oc1NCCc1ccc(OC)cc1 | – | – | 1.3 µM [rising, full curve] |
| CC(C)C(=O)N(Cc1cc2ccccc2[nH]c1=O)C(C)C | 30.2% | 23.1 µM [rising, single point] | – |
| C=CCN1C(=O)[C@@H]2Cc3c([nH]c4ccccc34)C(c3ccc(O)cc3)N2C1=S (some centres not stated) | -14.6% | – | 29.1 µM [falling, single point] |
| O=C(NNS(=O)(=O)c1ccc([N+](=O)[O-])cc1)C1CCCCC1 | 10.1% | – | 29.1 µM [rising, single point] |
| O=[N+]([O-])/C(C=Nc1ccccc1O)=C\Nc1ccccc1O | -14% | – | – |
| O=C(COC(=O)c1ccccc1-n1cnnn1)c1ccc(F)c(F)c1 | 17.1% | – | 6.51 µM [falling, single point] |
| Cc1ccc(NC(=O)C(=O)NCC2CCCN2S(=O)(=O)c2cccs2)cc1 (configuration not stated) | 95.6% | 8.2 µM [rising, partial curve] | – |
| O=S(=O)(c1ccccc1)c1nc(-c2ccco2)oc1NCCCn1ccnc1 | – | 0.651 µM [rising, full curve] | 0.82 µM [rising, full curve] |
| CC(=O)c1cccc(NS(=O)(=O)c2ccc(-c3cc(C)no3)s2)c1 | -16.1% | – | – |
| O=C(Nc1cc(Cl)cc(Cl)c1)C(NCCCO)c1ccccc1 (configuration not stated) | 52.5% | 29.1 µM [rising, partial curve, poor fit] | – |
| Cc1cc(NCCN(C)C)n2nc(-c3cccs3)cc2n1 | 5.67% | – | 6.51 µM [rising, single point] |
| Nc1nonc1-n1nnc(C(=O)N/N=C/c2cccnc2)c1-c1ccccc1 | 3.63% | – | – |
| CN1CCN(S(=O)(=O)c2cccc(C(=O)NCc3ccc(Cl)cc3)c2)CC1 | – | – | 2.91 µM [rising, partial curve, poor fit] |
| COCCCN1C(=O)c2ccc(C(=O)O)cc2C1=O | -60.6% | 4.11 µM [falling, full curve] | 6.51 µM [falling, single point] |
| CCCCn1c(N)c(N(CC(C)C)C(=O)CN(C)Cc2cccc(OC)c2)c(=O)[nH]c1=O | -24.2% | 0.731 µM [falling, full curve, poor fit] | – |
| NC(=O)C1CCN(C2=C(Cl)C(=O)c3ccccc3C2=O)CC1 | -77.5% | 20.6 µM [falling, single point] | 18.4 µM [falling, single point] |
| COc1ccc(/C=N/N(CCC(=O)NC(C)(C)C)C2=NS(=O)(=O)c3ccccc32)cc1 | -14.4% | – | 29.1 µM [falling, single point] |
| O=S(=O)(c1cnc[nH]1)N1CCc2ccccc21 | 3.25% | 1.46 µM [falling, partial curve, poor fit] | – |

Source: PubChem BioAssay AID2685 (National Center for Advancing Translational Sciences (NCATS), 2010)
